Measured values as given in the supplement of paper PMC11348887.
Counter-ions that a name gives are not always drawn. The list shows a part of the results. Most entries show no effect beyond the scatter of the controls.

Assays:
Conditions in all cases: 5 µM; treatment: days 7-14 after plating, readout day 21
[1] = tested on: hPSC-derived cortical neurons (WA09); test: nucleus area z-score vs screen plate; higher = larger nuclei (more mature)
[2] = tested on: hPSC-derived cortical neurons (WA09); test: total neurite length per nucleus (MAP2) z-score; higher = more neurite growth
[3] = tested on: hPSC-derived cortical neurons (WA09); test: nucleus roundness z-score vs screen plate; higher = rounder nuclei (more mature)
[4] = tested on: hPSC-derived cortical neurons (WA09); test: KCl-induced FOS+/EGR-1+ double-positive nuclei fraction z-score (KCl minus unstimulated); higher = stronger activity-induced IEG response

SMILES	nucleus area z-score [1]	total neurite length per nucleus (z-score) [2]	nucleus roundness z-score [3]	KCl-induced FOS+/EGR-1+ double-positive nuclei fraction z-score [4]
CCc1nc(-c2cccc(C)c2)c(-c2ccnc(NC(=O)c3ccccc3)c2)s1	1.19	-0.503	-0.305	0.48
CN(C)Cc1ccc(-c2nc3cccc4c3n2CCNC4=O)cc1	0.00852	0.717	0.332	1.8
CCCNC(=O)NS(=O)(=O)c1ccc(Cl)cc1 [Chlorpropamide]	-0.691	0.472	0.026	0.669
COc1ccccc1C(=O)Nc1cc2c(cc1N1CCCC1)n(C)c(=O)n2C	1.78	-0.0388	0.381	0.275
O=C(/C=C/c1ccc(O)c(O)c1)O[C@@H]1C[C@](O)(C(=O)O)C[C@@H](O)[C@H]1O [Chlorogenic Acid]	-0.0923	-0.0204	0.193	0.584
COc1cc(C(=O)NS(=O)(=O)c2ccccc2C)ccc1Cc1cn(C)c2ccc(NC(=O)OC3CCCC3)cc12 [Zafirlukast]	-0.608	-0.198	-0.8	1.8
Cc1cc(Nc2cc(N3CCN(C)CC3)nc(/C=C/c3ccccc3)n2)n[nH]1 [ENMD-2076 L-(+)-Tartaric acid]	2.11	0.737	-1.77	-0.642
CCn1cc(C(=O)O)c(=O)c2cc(F)c(N3CCN(C)CC3)cc21 [Pefloxacin Mesylate Dihydrate]	1	0.05	-0.66	0.0646
CC(C)Cc1ccc(C(C)C(=O)O)cc1 (stereo not given) [Ibuprofen]	-0.0447	0.376	0.697	0.807
O=c1ncn2nc(Sc3ccc(F)cc3F)ccc2c1-c1c(Cl)cccc1Cl	1.17	-0.0342	-0.457	1.63

An excerpt of these results, comma-delimited:
SMILES,nucleus area z-score [1],total neurite length per nucleus (z-score) [2],nucleus roundness z-score [3],KCl-induced FOS+/EGR-1+ double-positive nuclei fraction z-score [4]
COc1ccccc1C(=O)Nc1cc2c(cc1N1CCCC1)n(C)c(=O)n2C,1.78,-0.0388,0.381,0.275
CC(C)Cc1ccc(C(C)C(=O)O)cc1 (stereo not given) [Ibuprofen],-0.0447,0.376,0.697,0.807
